From publication doi:10.1101/2021.05.17.442671
No constants are given. Whether binding was seen depends on the method and setting. Some entries that bind do so weakly or less than the wild type.

Chains of the proteins cited; added tags and fusions are not shown.
UniProt Q1JPP8: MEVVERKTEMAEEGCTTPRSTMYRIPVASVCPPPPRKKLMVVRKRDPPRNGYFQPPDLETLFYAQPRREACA

B1: CYCD3;1 (protein, UniProt P42753 1-376)
chain: MAIRKEEESREEQSNSFLLDALYCEEEKWDDEGEEVEENSSLSSSSSPFVVLQQDLFWEDEDLVTLFSKEEEQGLSCLDDVYLSTDRKEAVGWILRVNAHYGFSTLAAVLAITYLDKFICSYSLQRDKPWMLQLVSVACLSLAAKVEETQVPLLLDFQVEETKYVFEAKTIQRMELLILSTLEWKMHLITPISFVDHIIRRLGLKNNAHWDFLNKCHRLLLSVISDSRFVGYLPSVVAAATMMRIIEQVDPFDPLSYQTNLLGVLNLTKEKVKTCYDLILQLPVDRIGLQIQIQSSKKRKSHDSSSSLNSPSCVIDANPFNSDESSNDSWSASSCNPPTSSSSPQQQPPLKKMRGAEENEKKKPILHLPWAIVATP
B2: CYCD7;1 (protein, UniProt Q9LZM0 1-341)
chain: MDNLLCEESWPASPLTPEPLPNFRHRSHDNDVVKMYPEIDAATMEEAIAMDLEKELCFNNHGDKFVEFFVSKKLTDYRFHAFQWLIQTRSRLNLSYETVFSAANCFDRFVYMTCCDEWTNWMVELVAVTSLSIASKFNEVTTPLLEELEMEGLTHMFHVNTVAQMELIILKALEWRVNAVTSYTFSQTLVSKIGMVGDHMIMNRITNHLLDVICDLKMLQYPPSVVATAAIWILMEDKVCRESIMNLFEQNHKEKIVKCVDGMKNRDIDHQSSRRRYSEGRSILSLLQRGDVMNMNGDYNVEDLSKIFQIFRYEKKKRDRGNHQDNIRPAKRMTIEMSNYI
B3: CYCD5;1 (protein, UniProt Q2V3B2 1-323)
chain: MGEPKDSLALFLCHESESSLNEDDDETIERSDKQEPHFTTTIDDEDYVADLVLKENLRFETLPSKTTSSSDRLIAIDWILTTRTRFGFQHQTAYIAISYFDLFLHKRFIGLQKDETWAMRLLSVACLSLAAKMEERIVPGLSQYPQDHDFVFKPDVIRKTELLILSTLDWKMNLITPFHYFNYFLAKISQDNHSVSKDLVLLRSSDSLLALTKEISFTEYRQFVVAAVTTLLASSSTSSDIRLTREEIANKFGSISWWTSNENENVYLCYQRTLEIEERKHMTPPPEIAVSREPPASGSGAKRRLSFDDSDQSSPPAKRMRRL

Target: SIAMESE-RELATED4 (SMR4) (Arabidopsis) (UniProt Q1JPP8)
Experiment: two-hybrid

binding | Binder
binds | B1
binds | B2
no binding | B3
